These are yes or no findings as the source states them, for the method shown. Some binding calls cover weakened binding; strength is not graded here. Tags and fused reporters may be left off the sequences shown.

This is an account of results in article doi:10.1101/2020.01.07.897124 (bioRxiv, 2020).

This assay concerns the target N-terminal GFP-tagged N-terminal truncated hSOAT1 (66-550) (human) (UniProt P35610). Kind of assay: SEC.

B1: N-terminal GFP-tagged N-terminal truncated hSOAT1 (66-550) (domain or fragment, UniProt P35610 66-550)
chain: MKEVGSHFDDFVTNLIEKSASLDNGGCALTTFSVLEGEKNNHRAKDLRAPPEQGKIFIARRSLLDELLEVDHIRTIYHMFIALLILFILSTLVVDYIDEGRLVLEFSLLSYAFGKFPTVVWTWWIMFLSTFSVPYFLFQHWATGYSKSSHPLIRSLFHGFLFMIFQIGVLGFGPTYVVLAYTLPPASRFIIIFEQIRFVMKAHSFVRENVPRVLNSAKEKSSTVPIPTVNQYLYFLFAPTLIYRDSYPRNPTVRWGYVAMKFAQVFGCFFYVYYIFERLCAPLFRNIKQEPFSARVLVLCVFNSILPGVLILFLTFFAFLHCWLNAFAEMLRFGDRMFYKDWWNSTSYSNYYRTWNVVVHDWLYYYAYKDFLWFFSKRFKSAAMLAVFAVSAVVHEYALAVCLSFFYPVLFVLFMFFGMAFNFIVNDSRKKPIWNVLMWTSLFLGNGVLLCFYSQEWYARQHCPLKNPTFLDYVRPRSWTCRYVF
For B1, the binding entry is “binds”.
